Several values for one entry are separate records, joined by “and”; a condition that tells them apart may be missing. Identical values can stand only once. Hit rate of the full screen: of about 400,000 compounds, about 3,700 (0.93%) were called active. This list was built around the results that the source calls inconclusive (neither active nor inactive); the mix of calls is not that of the screen. The call rests on the fitted dose curve; in most records, active means well fitted inhibition curve with a large enough effect; inconclusive means small, poorly fitted or top-dose-only effect, or another doubt; inactive means no such curve, though single readings can be large or run the other way. A potency beside an inconclusive call is a rough fit, not a confirmed value.
Target: Vitamin D3 receptor (Homo sapiens) (UniProt P11473)
Experiment: Inhibitors of the vitamin D receptor (VDR): qHTS
Conditions: VDR-SRC2-3 peptide fluorescence polarization, 2 h; max response, negative = inhibition: active compounds read low
Outline: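 Signal is fluorescence polarization, reporting how far test compounds block the interaction of VDR with the SRC2-3 coregulator peptide after a 2 h room-temperature incubation.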
On the % scale 0 is the no-effect control and ±100 the full control effect; potency means the concentration at half of the fitted maximal effect.

Sequences of proteins named here, by UniProt entry; tags and fusion partners are left off. A change or cut given only in a name is not applied to a line headed by its entry.
UniProt P11473: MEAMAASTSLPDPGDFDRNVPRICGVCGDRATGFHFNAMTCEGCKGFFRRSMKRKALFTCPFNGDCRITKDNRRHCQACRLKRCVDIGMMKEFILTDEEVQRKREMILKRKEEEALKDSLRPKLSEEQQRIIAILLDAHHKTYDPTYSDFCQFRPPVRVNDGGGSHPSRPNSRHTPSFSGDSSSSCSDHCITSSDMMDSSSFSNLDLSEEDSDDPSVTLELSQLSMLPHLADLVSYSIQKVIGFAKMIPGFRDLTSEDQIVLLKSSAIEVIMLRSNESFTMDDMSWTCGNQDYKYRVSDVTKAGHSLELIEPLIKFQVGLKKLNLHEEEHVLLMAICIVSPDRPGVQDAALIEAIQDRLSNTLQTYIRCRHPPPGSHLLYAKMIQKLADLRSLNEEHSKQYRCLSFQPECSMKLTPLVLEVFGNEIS

Structure (SMILES)	max response, negative = inhibition	Potency
C/C=C\C(=O)Nc1cccc(C2=NOC3(C2)C[C@@H](C(N)=O)N(C(=O)c2ccccc2)C3)c1 (stereo partly drawn)	inactive: -1.88%	
N#Cc1c(NC(=O)COC(=O)c2ccc(O)cc2O)sc2c1CCC2		inconclusive: 100 µM [inhibitor, single point]
Cc1nc(N2CCOCC2)c2c(C)c(C(=O)Nc3ccccc3Cl)sc2n1	inactive: -11.9%	
Cc1cccc(-n2c3nc(=O)[nH]c(=O)c-3cc3c(C)nn(-c4ccccc4)c32)c1C	inactive: 11.5% and inactive: -9.9%	
COc1ccc(/C=C/C(=O)c2ccc(Cl)cc2)c(OC)c1		inconclusive: 56.2 µM [inhibitor, partial curve, poor fit]
CCOC(=O)COc1cc2c(C(=O)OCC)c(C)oc2cc1Br		inconclusive: 89.1 µM [inhibitor, partial curve, poor fit]
CCNC(=O)[C@@H]1CCCN1C(=O)[C@H](CCCN=C(N)N)NC(=O)[C@H](CC(C)C)NC(=O)[C@@H](Cc1c[nH]c2ccccc12)NC(=O)[C@H](Cc1ccc(O)cc1)NC(=O)[C@H](CO)NC(=O)[C@H](Cc1c[nH]c2ccccc12)NC(=O)[C@H](Cc1cnc[nH]1)NC(=O)[C@@H]1CCC(=O)N1		inconclusive: 39.8 µM [inhibitor, partial curve, poor fit]
CC(SC1=Nc2ccccc2C2CC=NN12)C(=O)NC1(C#N)CCCCC1 (stereo not drawn)		inconclusive: 70.8 µM [inhibitor, partial curve]
Cc1ccc(-c2nc(CS(=O)CC(=O)NCc3ccco3)c(C)o2)cc1 (stereo not drawn)		inconclusive: 89.1 µM [inhibitor, single point]
COC(=O)CCC(=O)Nc1sc(C)c(C)c1C(N)=O		active: 50.1 µM
CCOC(=O)c1cc2c(=O)n3cccc(C)c3nc2n(CC(C)C)c1=NC(=O)c1ccco1		inconclusive: 100 µM [inhibitor, partial curve, poor fit]
O=C1CCCC2=C1C(c1ccncc1)n1c(nc3ccccc31)N2 (stereo not drawn)		inconclusive: 89.1 µM [inhibitor, single point]
O=C(c1ccc(S(=O)(=O)Cc2cc(F)ccc2F)c([N+](=O)[O-])c1)N1CCCCC1		inconclusive: 89.1 µM [inhibitor, single point]
ClCC1NCC(c2ccccc2Cl)c2c1[nH]c1ccccc21 (stereo not drawn)	inactive: -0.799%	
CN(C)Cc1ccccc1-c1ccc2ncnc(N(C)Cc3ccco3)c2c1		inconclusive: 50.1 µM [inhibitor, partial curve]
CCOC(=O)c1c(NC(=O)Cn2nnc3ccccc32)sc2c1CCC(C)C2 (stereo not drawn)	inactive: 2.81%	
CN(C(=O)CSc1nc2ccccc2n1Cc1cccc(C(F)(F)F)c1)c1ccccc1	inactive: -0.548%	
COc1cc(OC)c(C2=NOC(C(=O)NCc3cccnc3)C2)cc1Cl (stereo not drawn)	inactive: -7.14%	
COc1ccc(NC(=O)Nc2ccc(F)cc2F)cc1	inactive: -9.96%	
COc1ccc(CC(=O)n2[nH]c(=O)ccc2=O)cc1OC		active: 44.7 µM
Cc1nn(-c2cccc(Cl)c2)c2c1C(c1ccncc1)C(C#N)=C(N)O2 (stereo not drawn)		inconclusive: 89.1 µM [inhibitor, single point]

Structure (SMILES)	max response, negative = inhibition	Potency
COC(=O)c1ccc(NC(=O)CCS(=O)(=O)c2ccc3c(c2)NC(=O)C(C)S3)cc1 (stereo not drawn)		inconclusive: 39.8 µM [inhibitor, single point]
CC(C)CN(CCCNC(=O)c1cn(C)c2ccc(S(=O)(=O)N(C)C3CCCCC3)cc2c1=O)CC(C)C	inactive: -2.98%	
c1cncc(-c2ccc3ncnc(NCc4cccs4)c3c2)c1		inconclusive: 39.8 µM [inhibitor, partial curve, poor fit]
O=C(Nc1ccc(O)c(-c2nc3ccccc3o2)c1)C1(c2ccc(Br)cc2)CCCC1		inconclusive: 100 µM [inhibitor, single point]
O=C(CN1CCN(Cc2ccccc2)CC1)Nc1nc2ccccc2s1		inconclusive: 89.1 µM [inhibitor, partial curve]
CCc1cc(C(=O)OC)c(NC(=O)CN2CCN(C(=O)c3ccco3)CC2)s1		inconclusive: 70.8 µM [inhibitor, partial curve]
CCOC(=O)c1c(C)n(C(=O)c2ccco2)c(=O)n1C(=O)c1ccco1		inconclusive: 89.1 µM [inhibitor, single point]
CC(C)c1ccc(NC(=S)NN(c2ccccc2)c2ccccc2)cc1		inconclusive: 70.8 µM [inhibitor, single point]
COc1ccc(C2SCCN2C(=S)Nc2ccc(F)cc2)cc1 (stereo not drawn)		inconclusive: 50.1 µM [inhibitor, partial curve]
COc1ccccc1N1C(=O)C(Cl)=C(Nc2ccccc2O)C1=O		inconclusive: 89.1 µM [inhibitor, single point]
CC1CCC(NC(=O)C2CCN(S(=O)(=O)c3ccc4nc5c(c(C(=O)O)c4c3)CC(C)CC5)CC2)CC1 (stereo not drawn)	inactive: 3.32%	
O=C(NC(=O)c1ccc(Cl)cc1)Nc1cc(N2CCCCC2)ncn1		inconclusive: 0.631 µM [inhibitor, full curve, poor fit]
Cn1nc(C(F)(F)F)cc1Oc1ncc(C(F)(F)F)cc1Cl		active: 1.41 µM
CC(=O)Nc1ccc(S(=O)(=O)NNc2ccc([N+](=O)[O-])cc2)cc1		active: 89.1 µM
Cn1cc(P(=O)(N2CCOCC2)N2CCOCC2)cc1P(=S)(N1CCOCC1)N1CCOCC1		inconclusive: 100 µM [inhibitor, partial curve, poor fit]
Cc1ccc(-n2c(Cl)c(Cl)nc(Cl)c2=O)cc1		inconclusive: 8.91 µM [inhibitor, full curve, poor fit]
CCCCCCCCCS(=O)(=O)Nc1cc(C)ccn1		inconclusive: 44.7 µM [inhibitor, partial curve, poor fit]
CC(C)(C)S(=O)(=O)/C(C#N)=C/c1sccc1C1OCCO1		inconclusive: 89.1 µM [inhibitor, single point]
O=S(=O)(c1ccccc1)N1N=C(c2ccc(Br)cc2)CC1c1ccco1 (stereo not drawn)		inconclusive: 39.8 µM [inhibitor, partial curve, poor fit]
Cc1cc(C(=O)N/N=C/c2ccc(N(C)C)o2)cs1		inconclusive: 63.1 µM [inhibitor, partial curve, poor fit]
Cc1ccc(CS/C(Nc2ccccc2C)=C(\C#N)C(N)=O)c(C)c1	inactive: -9.27%	

Structure (SMILES)	max response, negative = inhibition	Potency
N#CC1(c2ccccc2)CCC(=NNS(=O)(=O)c2ccccc2)CC1 (stereo not drawn)		inconclusive: 100 µM [inhibitor, single point]
Cc1cc(C(=O)Nc2ccc(N3CCOCC3)c(Cl)c2)c(C)o1		inconclusive: 79.4 µM [inhibitor, single point]
CCCCn1c(NC(=O)c2ccc(Br)o2)c(S(=O)(=O)c2ccccc2)c2nc3ccccc3nc21		inconclusive: 35.5 µM [inhibitor, partial curve, poor fit]
N#Cc1ncc(Cc2ccccc2)nc1C#N		active: 79.4 µM
c1ccc(-c2n[nH]c(-c3ccccc3)c2-c2nc3ccccc3[nH]2)cc1		inconclusive: 14.1 µM [inhibitor, partial curve, poor fit]
COc1cccc2oc(-c3ccco3)cc(=O)c12		inconclusive: 100 µM [inhibitor, single point]
CC(C)(C)NC(=O)C(c1ccc(O)cc1)N(Cc1ccco1)C(=O)Cn1nnc(-c2cccs2)n1 (stereo not drawn)	inactive: -1.9%	
Cc1ccc(N2C(=O)C3C4C=CC(CNC(=S)N5CCN(c6ccccc6)CC5)(O4)C3C2=O)cc1 (stereo not drawn)	inactive: -20%	
CCc1nc(N2CCN(C(=O)CCl)CC2)c2c3c(sc2n1)CC(C)CC3 (stereo not drawn)		inconclusive: 25.1 µM [inhibitor, full curve, poor fit]
c1coc(CSSCc2ccco2)c1		active: 22.4 µM
O=C(OCn1ncc(Cl)c(Cl)c1=O)c1ccccc1Cl		inconclusive: 31.6 µM [inhibitor, full curve, poor fit]
CCOc1cc(N2CCOCC2)c(OCC)cc1NC(C)C(=O)N1CCC(C)CC1 (stereo not drawn)		inconclusive: 100 µM [inhibitor, partial curve, poor fit]
COc1ccc(C2/C(=C(/O)c3ccc(F)cc3)C(=O)C(=O)N2c2ccccn2)cc1OC (stereo not drawn)		inconclusive: 28.2 µM [inhibitor, partial curve, poor fit]
O=C(Nc1ccc(F)cc1Cl)C1Cc2ccccc2N1C(=O)c1ccccc1 (stereo not drawn)	inactive: 0.939%	
Cc1ccc(C(=O)CSc2ncn[nH]2)cc1		inconclusive: 89.1 µM [inhibitor, single point]
Cc1ccc(S(=O)(=O)N(CC(=O)N/N=C/c2ccco2)Cc2ccccc2)cc1	inactive: 1.53%	
COC(=O)CCC(=O)OC1(C)C(=O)C2=CN(c3ccc(OC)cc3)C(c3ccc(OC)cc3)=CC2=C(Br)C1=O (stereo not drawn)		inconclusive: 89.1 µM [inhibitor, partial curve, poor fit]
Cc1ccc(-c2nn(-c3ccccc3)cc2C2CC(c3cccs3)=NN2C(=O)CCCC(=O)O)cc1 (stereo not drawn)		inconclusive: 14.1 µM [inhibitor, single point]
COc1ccc(CCNc2ncnc3c2c(C)c(C)n3CCO)cc1OC		inconclusive: 79.4 µM [inhibitor, partial curve]
COc1ccc(CNc2cc(-c3ccoc3)ncn2)c(OC)c1		active: 11.2 µM
CCSc1nnc(NC(=O)CCNC(=O)c2ccccc2Cl)s1		inconclusive: 100 µM [inhibitor, single point]

Source: PubChem BioAssay AID504847 (National Center for Advancing Translational Sciences (NCATS), 2011)
